Measurements: PubChem BioAssay AID540276 (National Center for Advancing Translational Sciences (NCATS), 2011)
The whole screen tested about 300,000 compounds, of which about 5,400 (1.8%) were called active. This list was built around the results that the source calls inconclusive (neither active nor inactive); the mix of calls is not that of the screen. The call rests on the fitted dose curve; tested in HEK293 cells. Potencies of inconclusive entries are doubtful fits and often do not repeat.

assay: qHTS for inhibitors of binding or entry into cells for Marburg Virus; settings: Marburg virus pseudotyped entry inhibition, cell reporter; series mostly up to 37.8 µM
Potency means the concentration at half of the fitted maximal effect.

| Structure (SMILES) | Potency |
| --- | --- |
| Cc1ccc(NC(=O)c2ccccc2-c2ccc(C(F)(F)F)cc2)cc1S(=O)(=O)N1CCOCC1 | inconclusive: 5.62 µM [inhibitor, partial curve, poor fit] |
| O=C(CSc1ccc(Cl)cc1)N/N=C/c1cccnc1 | inactive |
| O=C(/C=C/c1cn(CC(O)CN2CCCCCC2)c2ccccc12)c1cccs1 (configuration not stated) | inconclusive: 29.1 µM [inhibitor, single point] |
| C=CCc1ccccc1OCC(O)CN(C(C)C)C(C)C (configuration not stated) | active: 6.31 µM |
| N=c1n(CCN2CCCCC2)c2ccccc2n1CC(O)COc1ccccc1 (configuration not stated) | inconclusive: 2.82 µM [inhibitor, full curve, poor fit] |
| Fc1ccccc1COc1ccccc1CNCc1ccncc1 | inconclusive: 1.83 µM [inhibitor, full curve] |
| CCC1(C)CC(CCNS(=O)(=O)c2ccc(C)cc2)(c2ccc(C)cc2)CCO1 (configuration not stated) | inconclusive: 17.8 µM [inhibitor, single point] |
| COc1cccc(CN(C)c2nc(-c3cccs3)nc3ccccc23)c1 | inconclusive: 1.84 µM [activator, partial curve, poor fit] |
| CSCCC(NS(=O)(=O)c1ccc(Cl)cc1)C(=O)OCC(=O)N1CCCc2ccccc21 (configuration not stated) | inconclusive: 12.6 µM [inhibitor, partial curve, poor fit] |
| CCOC(=O)c1nn(-c2ccc(Cl)cc2)c2nc(-c3ccc(C)cc3)c(C#N)c(=O)n12 | inactive |
| COc1ccc(C2=NN(C(=O)CCC(=O)O)C(c3ccccc3OC)C2)cc1 (configuration not stated) | inactive |
| Cc1ccoc1C(=O)NCCCNC(=O)c1occc1C | inactive |
| Cn1nc(C(=O)NCc2ccc(F)cc2)cc1C(=O)NCc1ccc(F)cc1 | inconclusive: 11.2 µM [inhibitor, single point] |
| O=Cc1cccn1-c1ccc(O)cc1 | inactive |
| CCOC(=O)c1ccc(NS(=O)(=O)c2ccc3c(c2)OCCO3)cc1 | inconclusive: 5.62 µM [inhibitor, single point] |
| CC12CN3CCN(CC(C3)C1O)C2 (configuration not stated) | inactive |
| CCCC(=O)Nc1cccc(-c2cn3cccnc3n2)c1 | inconclusive: 2.82 µM [activator, full curve, poor fit] |
| O=c1ccsn1Cc1ccccc1 | inconclusive: 14.1 µM [inhibitor, single point] |
| CCC(=O)NC1(C(F)(F)F)C(=O)Nc2c1c(=O)n(C)c(=O)n2C (configuration not stated) | inactive |
| Cn1c(=O)[nH]c(=O)c2c1nc(CN1CCN(Cc3ccccc3)CC1)n2CC(N)=O | inactive |
| COc1ccc(NC(=O)c2cc(S(=O)(=O)N(Cc3ccccc3)c3ccccc3)ccc2Cl)cn1 | inconclusive: 14.1 µM [inhibitor, single point] |
| N#Cc1ccc(NC(=O)COC(=O)C2Cc3ccccc3CN2C(=O)c2ccccc2)cc1 (configuration not stated) | inconclusive: 10 µM [inhibitor, partial curve, poor fit] |
| Nc1ccc(CCc2ccccn2)cc1 | inactive |
| COc1ccc(C2Nc3cc(OC)ccc3-n3cccc32)cc1 (configuration not stated) | inconclusive: 31.6 µM [inhibitor, partial curve, poor fit] |

| Structure (SMILES) | Potency |
| --- | --- |
| Cc1nnc(SCC(=O)Nc2sc3c(c2C#N)CCCC3)[nH]c1=O | inactive |
| Cc1cc(C)c(C(=O)CN2C(=O)NC3(CCC(C)CC3)C2=O)cc1C (configuration not stated) | inconclusive: 31.6 µM [activator, single point] |
| COc1ccccc1Nc1ncc(-c2cccs2)s1 | inactive |
| O=C(NCC1CCCO1)C(c1cccs1)N(Cc1cccs1)C(=O)Cn1nnc(-c2cccs2)n1 (configuration not stated) | inconclusive: 31.6 µM [inhibitor, partial curve, poor fit] |
| CC(=O)N1CCN(c2ccc(S(=O)(=O)N3CCCCC3)cc2[N+](=O)[O-])CC1 | inconclusive: 0.398 µM [inhibitor, partial curve, poor fit] |
| O=C(NCCc1ccc(Cl)cc1)c1ccc2nc[nH]c2c1 | inactive |
| O=C(O)c1ccccc1C(=O)c1cccc2ccccc12 | inconclusive: 5.62 µM [inhibitor, single point] |
| Cn1c(SCC(=O)Nc2ccc(Br)cc2)nc(O)cc1=O | inconclusive: 6.31 µM [inhibitor, single point] |
| COc1ccc(Cl)cc1Nc1cc(C)nc2nc(-c3ccccc3C)nn12 | inactive |
| CCOC(=O)c1c(C)n(C)c2cc(-c3ccc(F)cc3)c(O)cc12 | inactive |
| N#Cc1c(NC(=O)CCCl)sc2c1CCCCC2 | inconclusive: 35.5 µM [inhibitor, single point] |
| Cc1cc(OC(F)F)ccc1NC(=O)Nc1ccc([N+](=O)[O-])cc1 | inconclusive: 14.1 µM [inhibitor, single point] |
| O=C1OC(c2ccccc2)(c2ccc(O)cc2)c2ccccc21 (configuration not stated) | inconclusive: 35.5 µM [inhibitor, single point] |
| Cc1cccc(C)c1NC(=O)CN(Cc1ccc(Br)cc1)S(=O)(=O)c1ccccc1 | inconclusive: 35.5 µM [inhibitor, single point] |
| Cc1c(Cl)cccc1-n1ccnc1SCC(=O)O | inconclusive: 6.51 µM [inhibitor, single point] |
| CCC(C)n1c(C)cc(=O)n1C(C)CC (configuration not stated) | inactive |
| Cc1nc2sc(-c3ccccc3)cc2c(=O)n1/N=C/N(C)C | inconclusive: 1.12 µM [activator, full curve, poor fit] |
| O=c1[nH][nH]c2cc([N+](=O)[O-])ccc12 | inconclusive: 35.5 µM [inhibitor, single point] |
| CS(=O)(=O)c1ccc(Cl)c(NC(=O)CNC(=O)c2ccc3c(c2)OCO3)c1 | inactive |
| COc1ccc(C(C(=O)NC2CCCCC2)N(Cc2cccs2)C(=O)Cc2c[nH]c3ccccc23)cc1OC (configuration not stated) | inconclusive: 29.1 µM [inhibitor, single point] |
| CC(C)C(=O)NC(Nc1cc(C(F)(F)F)ccc1Cl)C(Cl)(Cl)Cl (configuration not stated) | inactive |
| CCC1Oc2ccc(C)cc2N(CC(=O)NCCN2CCCCCC2)C1=O (configuration not stated) | inconclusive: 2.91 µM [inhibitor, partial curve, poor fit] |
| CCOc1ccc(NC(=O)CN(C)C(=O)c2ccc3[nH]c4c(c3c2)CC(C)CC4)cc1OCC (configuration not stated) | inactive |
| CCC(C)(C)n1nnnc1C(c1cc2ccc(OC)cc2[nH]c1=O)N1CCN(C2CCCCC2)CC1 (configuration not stated) | active: 13 µM |

| Structure (SMILES) | Potency |
| --- | --- |
| CCC1CN(C(=O)NCc2ccccc2)c2cc(C)ccc2O1 (configuration not stated) | inactive |
| CN1/C(=C\C(=O)CSc2nnc(NCc3ccccc3)s2)C(C)(C)c2ccccc21 | inactive |
| N#Cc1nc(COc2ccc(F)cc2)oc1N1CCN(Cc2ccccc2)CC1 | inconclusive: 22.4 µM [inhibitor, partial curve, poor fit] |
| c1ccc(-c2nc(N3CCN(c4ccccc4)CC3)nc(-n3ccnc3)n2)cc1 | inconclusive: 25.9 µM [inhibitor, partial curve, poor fit] |
| Cc1cc(S(=O)(=O)N2CCN(c3ccc(F)cc3)CC2)ccc1-n1cnnn1 | inconclusive: 10 µM [inhibitor, partial curve, poor fit] |
| CC(C(=O)c1c[nH]c(C(=O)N=CN(C)C)c1)c1ncc(C(F)(F)F)cc1Cl (configuration not stated) | inconclusive: 1.12 µM [inhibitor, full curve, poor fit] |
| Cc1cc(C)nc(SCC(=O)c2cc3ccccc3oc2=O)n1 | inactive |
| CCNC(=O)/C(C#N)=C/c1c(N(Cc2ccccc2)Cc2ccccc2)nc2ccccn2c1=O | inconclusive: 35.5 µM [inhibitor, single point] |
| COC(=O)CSc1nc2ncc(Cl)cc2[nH]1 | inactive |
| CCOc1ccc(C(=O)c2cc([N+](=O)[O-])ccc2N2CCOCC2)cc1 | inconclusive: 0.0651 µM [inhibitor, full curve, poor fit] |
| O=S(=O)(c1ccccc1)c1nc(-c2ccc(Cl)cc2)oc1NCCCN1CCOCC1 | inconclusive: 6.31 µM [inhibitor, single point] |
| CC(OC(=O)CN1C(=O)C2C3C=CC(C4CC34)C2C1=O)C(=O)c1ccccc1 (configuration not stated) | inconclusive: 35.5 µM [inhibitor, single point] |
| O=C(COC(=O)CCN1C(=O)/C(=C\C=C\c2ccccc2)SC1=S)Nc1cc(F)ccc1F | inconclusive: 1.58 µM [inhibitor, full curve, poor fit] |
| O=C1CS/C(=N\NC(=O)c2ccccc2)N1 | inactive |
| Cc1ccc(C)c(NC(=O)c2ccccc2Sc2ccc([N+](=O)[O-])cc2Cl)c1 | inconclusive: 11.2 µM [inhibitor, partial curve, poor fit] |
| Cc1ccc(Cn2nnc(C(=O)Nc3cccc(C)c3C)c2N)cc1 | inconclusive: 0.0046 µM [inhibitor, full curve, poor fit] |
| CCOC(=O)C1CCCN(CCC(=O)Nc2ccc(C)c(C)c2)C1 (configuration not stated) | inconclusive: 29.1 µM [inhibitor, partial curve, poor fit] |
| Cc1ccc(/C=N/Nc2nnc(Cl)c3ccccc23)cc1 | active: 10 µM |
| Cc1c(C(=O)OCC(=O)N2CCN(c3ccccc3)CC2)oc2ccccc12 | inactive |
| O=C(Nc1ccccc1)C1(c2ccccc2)CC1(Cl)Cl (configuration not stated) | inactive |
| CC(C(=O)c1ccccc1)[n+]1cccc(Br)c1 (configuration not stated) | inconclusive: 1.26 µM [inhibitor, single point] |
| CCOC(=O)c1ccccc1NC(=O)c1ccc(F)cc1 | inactive |
| COc1ccccc1/C=N/N(C(C)=O)c1nc(-c2ccc(F)cc2)cs1 | inconclusive: 32.6 µM [inhibitor, single point] |
| CCc1ccc([C@@H]2C[C@H]3CN(Cc4ccccc4OC)C(=O)[C@]34CCCN24)cc1 | inconclusive: 11.2 µM [inhibitor, partial curve, poor fit] |

By substructure, the entries above with a furan ring, fused or not (two)

| Structure (SMILES) | Potency |
| --- | --- |
| Cc1ccoc1C(=O)NCCCNC(=O)c1occc1C | inactive |
| Cc1c(C(=O)OCC(=O)N2CCN(c3ccccc3)CC2)oc2ccccc12 | inactive |

Given bar-delimited: 2 of the compounds above
Structure (SMILES) | Potency
COc1ccc(C(C(=O)NC2CCCCC2)N(Cc2cccs2)C(=O)Cc2c[nH]c3ccccc23)cc1OC (configuration not stated) | inconclusive: 29.1 µM [inhibitor, single point]
O=C(COC(=O)CCN1C(=O)/C(=C\C=C\c2ccccc2)SC1=S)Nc1cc(F)ccc1F | inconclusive: 1.58 µM [inhibitor, full curve, poor fit]
